Results taken from paper PMC10371808.

Protein sequences, listed by entry. Tags and fused reporters are not part of them. Lines headed by an entry give the natural chain unless they say otherwise; changes in a name come on top.
UniProt P9WG67, whole entry, looked up, stated change not applied: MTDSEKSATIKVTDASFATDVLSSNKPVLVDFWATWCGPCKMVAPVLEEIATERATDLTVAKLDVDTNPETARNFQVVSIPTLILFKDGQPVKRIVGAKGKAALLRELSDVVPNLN

What was measured:
[1] = target: TrxC C40S (M. tuberculosis) (UniProt P9WG67); test: affinity purification with mass spectrometry; only the target purified
[2] = target: T1, NrdH C14S (M. tuberculosis) (UniProt A5U767); test: as above
T1 sequence: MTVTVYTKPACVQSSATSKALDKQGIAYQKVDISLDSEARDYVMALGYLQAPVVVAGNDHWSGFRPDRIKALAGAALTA

For DosR (from UniProt P9WMF9 1-217), the binding [1] was “binds”.
In the case of IdeR (from UniProt P9WMH1 1-230), the binding [2] is reported as “binds”.
With “NrdE (from UniProt P9WH75 1-725) (enzyme)” the binding [2] was “no binding” and the binding [1] was “binds”.
With “Putative thiosulfate sulfurtransferase (CysA1) (from UniProt P9WHF9 1-277) (enzyme)” the binding [2] was “binds” and the binding [1] was “binds”.

These are yes or no findings as the source states them, for the method shown. In cells and extracts the contact can be indirect. Here binding means that the protein was enriched with, or labelled near, the bait; the list need not be complete. For part of these data: No binding means not detected with the bait.
